According to US4508730A, “1,7-Dihydro-pyrrolo[3,4-e][1,4]diazepin-2(3H)-one derivatives a process for preparing them and their use as anticonvulsant and anti-anxiety agents” (Gruppo Lepetit S.p.A., priority 1982, dated 1985):
At least one structure is not confirmed: it was looked up by name or label, or the drawing left a doubt.

Biological target: benzodiazepine receptors
Assay: "benzodiazepine receptors" test, displacement of ^3 H-Diazepam from rat brain receptors
Format: binding
Conditions: ^3 H-Diazepam displacement, read-out: In vitro Ki
Description: The anti-anxiety activity of the compounds of the present invention was shown by submitting the compounds to the "benzodiazepine receptors" test.
These experiments were carried out by following the method described by H. Mohler and T. Okada in Life Sciences, Vol. 20, 2101-2110 (1977).

Cc1c2c(cn1C)N(C)C(=O)C(OC(=O)CCC(=O)O)N=C2c1ccccc1Cl (stereo not shown) [Example 13, 1,4-butandioic acid 1-[5-(2-chlorophenyl)-1,3,7-trihydro-1,6,7-trimethyl-2-oxo-pyrrolo[3,4-e][1,4]diazepinyl]ester]
Ki: 36.8 nM
